Source: patent US20260232713A1, “PLECOMACROLIDE DERIVATIVES FOR MHC-I NEF DOWNMODULATION” (priority 2022, published 2026)

System: V-ATPase
Experiment: Lysosomal acidification (Lysotracker mean fluorescence intensity) as indicator of V-ATPase activity in primary CD4+ T cells
Type: cell-based, human
Conditions: ratio V-ATPase (Lysotracker) IC50 to Nef IC50

SMILES | Lys:Nef (neutralization window, fold-change between Nef and V-ATPase IC50s)
C[C@@H]1C[C@H](C)C[C@H](C)[C@@H](O)CC(=O)O[C@H]([C@@H]2CCC[C@H]2C(=O)O)C/C=C/C=C(/C#N)[C@H](O)[C@@H](C)C1 [Compound S2, Borrelidin, reference compound] | 1.5 fold
CO/C1=C\C(C)=C\[C@@H](C)[C@@H](O)[C@@H](C)C/C(C)=C/C=C/[C@H](OC)[C@@H]([C@@H](C)[C@@H](O)[C@H](C)[C@@]2(O)C[C@@H](OC=O)[C@H](C)[C@@H](C(C)C)O2)OC1=O [Compound S61] | 3.6 fold
C/C=C/CC(=O)O[C@@H]1C[C@](O)([C@@H](C)[C@H](O)[C@H](C)[C@H]2OC(=O)/C(OC)=C/C(C)=C/[C@@H](C)[C@@H](O)[C@@H](C)C/C(C)=C/C=C/[C@@H]2OC)OC(C(C)C)[C@H]1C (stereo partly shown) [Compound S29] | 2.0 fold
CO/C1=C\C(C)=C\[C@@H](C)[C@@H](OC(C)=O)[C@@H](C)C/C(C)=C/C=C/[C@H](OC)[C@@H]([C@@H](C)[C@@H](O)[C@H](C)[C@@]2(O)C[C@@H](OC(C)=O)[C@H](C)C(C(C)C)O2)OC1=O (stereo partly shown) [Compound S19] | 2.2 fold
CC[C@H]1OC(=O)[C@H](C)[C@@H](O)[C@@H](C)C[C@@H](C)C(=O)/C=C/[C@H]1C [10-deoxymethynolide, reference compound] | 4.8 fold
C/C=C/[C@H]1O[C@@H]([C@@H](C)[C@H](O)[C@H](C)[C@H]2OC(=O)/C(OC)=C/C(C)=C/[C@@H](C)[C@@H](O)[C@@H](CC)[C@@H](O)[C@H](C)C/C(C)=C/C=C/[C@@H]2OC)C[C@@H](O[C@@H]2C[C@H](O)[C@@H](O)[C@H](C)O2)[C@@H]1C [Compound S62, 21-Deoxy CMC] | 4.2 fold
C/C=C/[C@H]1O[C@@](O)([C@@H](C)[C@H](O)[C@H](C)[C@H]2OC(=O)/C(OC)=C/C(C)=C/[C@@H](C)[C@@H](O)[C@@H](CC)[C@@H](O)[C@H](C)C/C(C)=C/C=C/[C@@H]2OC)C[C@@H](O[C@@H]2C[C@H](OC(C)=O)[C@@H](OC(C)=O)[C@H](C)O2)[C@@H]1C [Compound S48, 3′,4-diacetyl CMC] | 4.2 fold
C/C=C/[C@H]1O[C@@](O)([C@@H](C)[C@H](O)[C@H](C)[C@H]2OC(=O)/C(OC)=C/C(C)=C/[C@@H](C)[C@@H](O)[C@@H](CC)[C@@H](O)[C@H](C)C/C(C)=C/C=C/[C@@H]2OC)C[C@@H](O[C@@H]2C[C@H](OC(C)=O)[C@@H](OC(N)=O)[C@H](C)O2)[C@@H]1C [Compound 14, 3′-Acetyl CMA] | 19 fold
C/C=C/[C@H]1O[C@@](O)([C@@H](C)[C@H](O)[C@H](C)[C@H]2OC(=O)/C(OC)=C/C(C)=C/[C@@H](C)[C@@H](O)[C@@H](CC)[C@@H](O)[C@H](C)C/C(C)=C/C=C/[C@@H]2OC)C[C@@H](OC(C)=O)[C@@H]1C [Compound S50, 23-Acetyl CMF] | 5.6 fold
CO/C1=C\C(C)=C\[C@@H](C)[C@@H](O)[C@@H](C)C/C(C)=C/C=C/[C@H](OC)[C@@H]([C@@H](C)[C@@H](O)[C@H](C)[C@H]2C[C@@H](OC)[C@H](C)[C@@H](C(C)C)O2)OC1=O [Compound S6] | 2.7 fold
C=C/C=C/C(=O)O[C@@H]1C[C@](O)([C@@H](C)[C@H](O)[C@H](C)[C@H]2OC(=O)/C(OC)=C/C(C)=C/[C@@H](C)[C@@H](O)[C@@H](C)C/C(C)=C/C=C/[C@@H]2OC)O[C@H](C(C)C)[C@H]1C [Compound S12] | 1.5 fold
C#CCCC(=O)O[C@@H]1C[C@H]([C@@H](C)[C@H](O)[C@H](C)[C@H]2OC(=O)/C(OC)=C/C(C)=C/[C@@H](C)[C@@H](O)[C@@H](C)C/C(C)=C/C=C/[C@@H]2OC)O[C@H](C(C)C)[C@H]1C [Compound S28] | 2.8 fold
C/C=C/[C@H]1O[C@@](O)([C@@H](C)[C@H](O)[C@H](C)[C@H]2OC(=O)/C(OC)=C/C(C)=C/[C@@H](C)[C@@H](O)[C@@H](C)[C@@H](O)[C@H](C)C/C(C)=C/C=C/[C@@H]2OC)C[C@@H](O[C@@H]2C[C@H](OC(C)=O)[C@@H](OC(N)=O)[C@H](C)O2)[C@@H]1C [Compound 12, 3′-Acetyl Concanamycin B] | 21 fold
CO/C1=C\C(C)=C\[C@@H](C)[C@@H](O)[C@@H](C)C/C(C)=C/C=C/[C@H](OC)[C@@H]([C@@H](C)[C@@H](O)[C@H](C)[C@@]2(OC)C[C@@H](O)[C@H](C)C(C(C)C)O2)OC1=O (stereo partly shown) [Compound S4, Bafilomycin A2] | 2.3 fold
CCCCCCCCC(=O)O[C@@H]1C[C@](O)([C@@H](C)[C@H](O)[C@H](C)[C@H]2OC(=O)/C(OC)=C/C(C)=C/[C@@H](C)[C@@H](O)[C@@H](C)C/C(C)=C/C=C/[C@@H]2OC)O[C@H](C(C)C)[C@H]1C [Compound S11] | 1.2 fold
C/C=C/[C@H]1O[C@@](O)([C@@H](C)[C@H](O)[C@H](C)[C@H]2OC(=O)/C(OC)=C/C(C)=C/[C@@H](C)[C@@H](O)[C@@H](CC)[C@@H](OC(C)=O)[C@H](C)C/C(C)=C/C=C/[C@@H]2OC)C[C@@H](O[C@@H]2C[C@H](OC(C)=O)[C@@H](OC(C)=O)[C@H](C)O2)[C@@H]1C [Compound S49, 3′,4′,9-triaceyl CMC] | 3.6 fold
